# Measured values reported in the supplement of paper PMC9135407.
# Values joined by “and” are separate entries in the source; they are usually repeats but may differ in a detail not shown here. Equal values may be shown once. Where a name gives a salt, the structure may show the parent alone. ± gives the standard deviation of the averaged measurements. The list shows a part of the results. Part of the spread comes from offsets between plates or batches.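 Culture-activated primary human stellate myofibroblasts, where regained lipid droplets signal inactivation. Value: share of Hoechst-counted cells above a per-plate Bodipy cutoff, in duplicate wells, with DMSO negative and nortriptyline positive controls on each plate. Hits: a control-normalized score above the plate's top-tenth-percentile nortriptyline wells, or one of a plate's three best wells. Final well concentrations are not given.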
# System: primary human hepatic stellate cells (donor 1)
# Experiment: percent Bodipy-positive cells; higher = more lipid droplet accumulation
# Conditions: 48 h
# [1] = library stock concentration: 3.33 mM
# [2] = library stock concentration: 10 mM
# [3] = library stock concentration: 4.5 mM
# [4] = library stock concentration: 80 uM
# [5] = library stock concentration: 400 uM
# [6] = library stock concentration: 2 mM
# [7] = library stock concentration: 1 mM
smiles,measurement,setting,value
CC12CC3CC(C)(C1)CC(N)(C3)C2 [Memantine Hydrochloride],percent Bodipy-positive cells,,47.5 ± 11%
CC12CC3CC(C)(C1)CC(N)(C3)C2 [Memantine hydrochloride],percent Bodipy-positive cells,library stock concentration: 9.3 mM,69.1 ± 0.94%
CC12CC3CC(C)(C1)CC(N)(C3)C2 [Memantine HCl],percent Bodipy-positive cells,[1],18.8 ± 8.6%
same,percent Bodipy-positive cells,[2],53.8 ± 5.6%
CC12CC3CC(C)(C1)CC(N)(C3)C2,percent Bodipy-positive cells,[2],65.4 ± 1.5%
Cc1ccc(CNc2ncnc3ccc(-c4ccc(CO)o4)cc23)o1,percent Bodipy-positive cells,[1],32.5 ± 11%
same,percent Bodipy-positive cells,[2],35.3 ± 17%
CCC[C@@H]1C[C@@H](C(=O)N[C@@H]([C@H]2O[C@H](SC)[C@H](O)[C@@H](O)[C@H]2O)[C@@H](C)O)N(C)C1 [Lincomycin],percent Bodipy-positive cells,library stock concentration: 4.9 mM,9.58 ± 3.8%
CCC[C@@H]1C[C@@H](C(=O)N[C@@H]([C@H]2O[C@H](SC)[C@H](O)[C@@H](O)[C@H]2O)[C@@H](C)O)N(C)C1 [Lincomycin hydrochloride],percent Bodipy-positive cells,,25.2 ± 8.8%
same,percent Bodipy-positive cells,[3],2.96 ± 0.12%
same,percent Bodipy-positive cells,[2],15.5 ± 2.8%
CCC[C@@H]1C[C@@H](C(=O)N[C@@H]([C@H]2O[C@H](SC)[C@H](O)[C@@H](O)[C@H]2O)[C@@H](C)O)N(C)C1 [Lincomycin HCl],percent Bodipy-positive cells,[1],7.53 ± 2.7%
same,percent Bodipy-positive cells,[2],14.7 ± 2.2%
N#Cc1c(Oc2ccc(F)c(NC(=O)Cc3cccc(C(F)(F)F)c3)c2)ccc2nc(NC(=O)C3CC3)sc12,percent Bodipy-positive cells,[4],9.3 ± 2.7%
same,percent Bodipy-positive cells,[5],7.87 ± 1.1%
same,percent Bodipy-positive cells,[6],10.1 ± 1.4%
same,percent Bodipy-positive cells,[1],30 ± 1.4%
"CCCCC(C)(C)[C@H](O)/C=C/[C@@H]1[C@@H](C/C=C\CCCC(=O)O)[C@@H](O)C[C@H]1O [16,16-dimethyl Prostaglandin F2.alpha.]",percent Bodipy-positive cells,[7],17.7 ± 2.7%
CN1CCCN=C1/C=C/c1cccs1 [Pyrantel pamoate],percent Bodipy-positive cells,[2],5.77 ± 0.7%
CN1CCCN=C1/C=C/c1cccs1 [Pyrantel tartrate],percent Bodipy-positive cells,,30 ± 4.3%
CO[C@H]1C[C@@H]2CC[C@@H](C)[C@@](O)(O2)C(=O)C(=O)N2CCCC[C@H]2C(=O)O[C@H]([C@H](C)C[C@@H]2CC[C@@H](OC(=O)C(C)(CO)CO)[C@H](OC)C2)CC(=O)[C@H](C)/C=C(\C)[C@@H](O)[C@@H](OC)C(=O)[C@H](C)C[C@H](C)/C=C/C=C/C=C/1C,percent Bodipy-positive cells,[1],6 ± 1.7%
same,percent Bodipy-positive cells,[2],10.9 ± 1.6%
CCCCC(CC)COc1ccc(-c2nc(-c3ccc(OC)cc3)nc(-c3ccc(OCC(CC)CCCC)cc3O)n2)c(O)c1 (stereo not given),percent Bodipy-positive cells,[2],43.2 ± 7.9%
CC/C=C\C/C=C\C/C=C\C/C=C\C/C=C\C/C=C\CCC(=O)O [Docosahexaenoic acid(22:6 n-3)],percent Bodipy-positive cells,[7],12.7 ± 7.5%
CC/C=C\C/C=C\C/C=C\C/C=C\C/C=C\C/C=C\CCC(=O)O [Docosahexaenoic Acid],percent Bodipy-positive cells,[7],7.04 ± 1.8%
CS(=O)(=O)CCNCc1nc(-c2ccc3ncnc(Nc4ccc(OCc5cccc(F)c5)c(Cl)c4)c3c2)cs1.Cl.Cl,percent Bodipy-positive cells,[2],82.9 ± 4.1%
Cc1noc(-c2ccc(CSCCC(=O)O)cc2)c1NC(=O)OC(C)c1ccccc1Cl (stereo not given),percent Bodipy-positive cells,[1],5.58 ± 1.3%
same,percent Bodipy-positive cells,[2],10.8 ± 3.6%
Cc1ccc(C(=O)Nc2cccc(C(F)(F)F)c2)cc1Nc1nc(-c2cccnc2)nc2c1cnn2C,percent Bodipy-positive cells,[4],13 ± 2.1%
same,percent Bodipy-positive cells,[5],9.49 ± 2.2%
same,percent Bodipy-positive cells,[6],9.58 ± 2.9%
same,percent Bodipy-positive cells,[2],69.8 ± 16%
COc1ccc(-c2cc(=O)c3c(OC)c(OC)c(OC)c(OC)c3o2)cc1OC [Nobiletin],percent Bodipy-positive cells,[1],12.9 ± 3.2%
same,percent Bodipy-positive cells,[2],23.7% and 38.5%
CC(N)=NCc1cccc(CN)c1,percent Bodipy-positive cells,library stock concentration: 20 mM,19.9 ± 5.9%
O=c1cc[nH]c(=O)[nH]1,percent Bodipy-positive cells,[2],34.95 ± 0.34%
O=c1cc[nH]c(=O)[nH]1 [Uracil],percent Bodipy-positive cells,[1],17.4 ± 0.88%
same,percent Bodipy-positive cells,[2],35.8 ± 5.7%
CCCCCCCCCCCCCCCCCC(=O)NCCO [Stearoyl Ethanolamide],percent Bodipy-positive cells,[7],7.82 ± 1.4%
"CN1[C@@H]2CC[C@H]1C[C@@H](OC(=O)C(O)c1ccccc1)C2 (mixture of isomers) [Homatropine hydrobromide (R,S)]",percent Bodipy-positive cells,,30.6 ± 3.6%
CN1[C@@H]2CC[C@H]1C[C@@H](OC(=O)C(O)c1ccccc1)C2 (mixture of isomers) [DL-Homatropine hydrobromide],percent Bodipy-positive cells,[2],56 ± 2.3%
O=[N+]([O-])c1cn2c(n1)OC[C@@H](OCc1ccc(OC(F)(F)F)cc1)C2,percent Bodipy-positive cells,[1],9.68 ± 3.4%
same,percent Bodipy-positive cells,[2],16.5 ± 8.8%
CC(C)[C@@H]1NC(=O)[C@H](Cc2ccccc2)NC(=O)[C@@H](CC(=O)O)NC(=O)CNC(=O)[C@H](CCCN=C(N)N)NC1=O [Cyclo [Arg-Gly-Asp-D-Phe-Val]],percent Bodipy-positive cells,library stock concentration: 8.7 mM,16.3 ± 1.3%
Cn1nnc2c(C(N)=O)ncn2c1=O,percent Bodipy-positive cells,[2],12.9% and 34.2%
Cn1nnc2c(C(N)=O)ncn2c1=O [Temozolomide],percent Bodipy-positive cells,[1],13.6 ± 1.2%
same,percent Bodipy-positive cells,[2],24.7% and 6.75%
COc1ccc(CCC(=O)c2c(O)cc(O[C@@H]3O[C@H](CO)[C@@H](O)[C@H](O)[C@H]3O[C@@H]3O[C@@H](C)[C@H](O)[C@@H](O)[C@H]3O)cc2O)cc1O [Neohesperidin dihydrochalcone],percent Bodipy-positive cells,[2],21.4 ± 9.1%
CC(C)(C)CC(C)(C)c1ccc(OCCOCC[N+](C)(C)Cc2ccccc2)cc1 [Benzethonium chloride],percent Bodipy-positive cells,,53.9 ± 12%
same,percent Bodipy-positive cells,[3],5.69 ± 3.3%
same,percent Bodipy-positive cells,[2],39.5 ± 4.4%
CC(C)(C)CC(C)(C)c1ccc(OCCOCC[N+](C)(C)Cc2ccccc2)cc1 [Benzethonium Chloride],percent Bodipy-positive cells,[1],20.5 ± 1.2%
same,percent Bodipy-positive cells,[2],98.9 ± 0.73%
Nc1nc(NCC2CCC(CNS(=O)(=O)c3cccc4ccccc34)CC2)nc2ccccc12 (stereo not given),percent Bodipy-positive cells,[2],96 ± 5.6%
"CCCCCC(=O)CC[C@H]1[C@H](O)CC(=O)[C@@H]1CCCCCCC(=O)O [13,14-dihydro-15-keto Prostaglandin E1]",percent Bodipy-positive cells,[7],16.3 ± 6.8%
